Where a name gives a salt, the structure may show the parent alone. The list shows a part of the results. Hit calls seldom repeat between salt and free forms of one compound.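 In K562 cells expressing nanoluciferase-fused kinases, luminescence was recorded at 4 h intervals between 2 and 18 h, normalized as percent of control with DMSO at 100% and a positive control at 0%. A significant (2 sigma) signal drop marks a time point as decreased. The authors' rule for a hit is not shown and takes in more than the number of time points.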
Legend:
Assay in all cases: number of time points (of 5) at which kinase-Nluc abundance scored as decreased, DMSO-normalised (count); higher = more persistent destabilization
Details in all cases: K562; 2-18 h
CAMK2A = CAMK2A (UniProt Q9UQM7)
CAMK2G = CAMK2G (UniProt Q13555)
CDK10 = CDK10 (UniProt Q15131)
CDK2 = CDK2 (UniProt P24941)
CDK3 = CDK3 (UniProt Q00526)
CDK5 = CDK5 (UniProt Q00535)
CDK6 = CDK6 (UniProt Q00534)
CHEK2 = CHEK2 (UniProt O96017)
CSF1R = CSF1R (UniProt P07333)
CSK = CSK (UniProt P41240)

Amino acid sequences for entries named in this document (tags omitted). A change or cut given only in a name is not applied to a line headed by its entry.
UniProt Q9UQM7, whole entry: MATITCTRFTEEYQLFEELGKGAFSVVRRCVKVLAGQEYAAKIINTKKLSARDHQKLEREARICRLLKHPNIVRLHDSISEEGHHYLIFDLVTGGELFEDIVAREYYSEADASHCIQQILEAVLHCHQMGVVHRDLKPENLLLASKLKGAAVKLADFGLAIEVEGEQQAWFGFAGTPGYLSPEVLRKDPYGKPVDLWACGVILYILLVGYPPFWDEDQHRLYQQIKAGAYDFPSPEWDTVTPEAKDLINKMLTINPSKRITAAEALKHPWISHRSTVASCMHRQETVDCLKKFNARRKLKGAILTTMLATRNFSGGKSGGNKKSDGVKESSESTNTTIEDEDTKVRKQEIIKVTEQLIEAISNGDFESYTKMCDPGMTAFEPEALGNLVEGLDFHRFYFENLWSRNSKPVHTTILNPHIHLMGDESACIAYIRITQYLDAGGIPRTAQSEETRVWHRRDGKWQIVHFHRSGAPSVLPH
UniProt Q13555: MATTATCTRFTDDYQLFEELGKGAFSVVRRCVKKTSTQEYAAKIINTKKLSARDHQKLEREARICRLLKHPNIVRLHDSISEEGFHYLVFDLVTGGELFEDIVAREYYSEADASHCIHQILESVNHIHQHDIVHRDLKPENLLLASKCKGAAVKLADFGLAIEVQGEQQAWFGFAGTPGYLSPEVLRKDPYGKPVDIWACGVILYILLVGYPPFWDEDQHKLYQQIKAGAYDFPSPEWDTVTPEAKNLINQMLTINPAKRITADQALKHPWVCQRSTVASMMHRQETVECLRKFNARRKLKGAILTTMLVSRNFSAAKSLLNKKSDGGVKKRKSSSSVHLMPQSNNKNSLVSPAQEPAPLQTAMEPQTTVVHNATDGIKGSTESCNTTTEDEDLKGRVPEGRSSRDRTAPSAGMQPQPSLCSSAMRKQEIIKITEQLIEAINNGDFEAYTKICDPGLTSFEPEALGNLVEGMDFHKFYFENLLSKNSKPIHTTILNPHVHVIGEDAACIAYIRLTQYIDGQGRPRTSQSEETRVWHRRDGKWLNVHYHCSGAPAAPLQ
UniProt Q15131: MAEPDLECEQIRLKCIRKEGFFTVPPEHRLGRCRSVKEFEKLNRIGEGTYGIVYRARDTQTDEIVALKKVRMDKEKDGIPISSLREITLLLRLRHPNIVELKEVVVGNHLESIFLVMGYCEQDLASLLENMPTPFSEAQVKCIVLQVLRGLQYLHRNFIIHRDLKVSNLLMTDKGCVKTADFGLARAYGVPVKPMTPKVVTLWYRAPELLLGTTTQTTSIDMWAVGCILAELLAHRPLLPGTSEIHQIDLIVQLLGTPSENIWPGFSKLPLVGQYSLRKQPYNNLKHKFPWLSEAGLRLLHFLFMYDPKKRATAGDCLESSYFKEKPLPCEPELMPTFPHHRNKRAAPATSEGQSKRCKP
UniProt Q00526: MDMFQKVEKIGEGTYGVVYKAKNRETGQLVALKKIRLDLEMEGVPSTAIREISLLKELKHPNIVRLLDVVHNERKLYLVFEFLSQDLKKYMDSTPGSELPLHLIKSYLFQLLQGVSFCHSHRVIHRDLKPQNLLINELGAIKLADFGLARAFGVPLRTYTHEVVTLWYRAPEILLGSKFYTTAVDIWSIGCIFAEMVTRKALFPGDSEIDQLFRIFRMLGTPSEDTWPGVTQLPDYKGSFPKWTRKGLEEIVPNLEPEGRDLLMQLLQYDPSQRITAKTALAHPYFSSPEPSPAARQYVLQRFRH
UniProt Q00535, whole entry, looked up: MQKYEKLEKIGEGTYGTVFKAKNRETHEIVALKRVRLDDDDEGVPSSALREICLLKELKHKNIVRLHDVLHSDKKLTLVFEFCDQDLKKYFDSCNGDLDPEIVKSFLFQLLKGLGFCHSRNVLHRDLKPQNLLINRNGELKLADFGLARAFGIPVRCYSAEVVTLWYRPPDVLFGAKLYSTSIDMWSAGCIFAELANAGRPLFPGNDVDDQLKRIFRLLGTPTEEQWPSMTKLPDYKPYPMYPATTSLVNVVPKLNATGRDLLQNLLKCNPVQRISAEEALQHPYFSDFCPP
UniProt Q00534, whole entry: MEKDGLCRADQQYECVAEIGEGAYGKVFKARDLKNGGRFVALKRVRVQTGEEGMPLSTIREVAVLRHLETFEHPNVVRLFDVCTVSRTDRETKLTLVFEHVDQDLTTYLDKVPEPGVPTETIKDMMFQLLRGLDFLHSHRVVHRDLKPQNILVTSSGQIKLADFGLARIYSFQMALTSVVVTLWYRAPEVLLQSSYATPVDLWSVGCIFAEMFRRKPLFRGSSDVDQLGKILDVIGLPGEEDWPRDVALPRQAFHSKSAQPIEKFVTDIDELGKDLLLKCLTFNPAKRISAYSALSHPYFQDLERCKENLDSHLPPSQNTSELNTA
UniProt O96017, whole entry: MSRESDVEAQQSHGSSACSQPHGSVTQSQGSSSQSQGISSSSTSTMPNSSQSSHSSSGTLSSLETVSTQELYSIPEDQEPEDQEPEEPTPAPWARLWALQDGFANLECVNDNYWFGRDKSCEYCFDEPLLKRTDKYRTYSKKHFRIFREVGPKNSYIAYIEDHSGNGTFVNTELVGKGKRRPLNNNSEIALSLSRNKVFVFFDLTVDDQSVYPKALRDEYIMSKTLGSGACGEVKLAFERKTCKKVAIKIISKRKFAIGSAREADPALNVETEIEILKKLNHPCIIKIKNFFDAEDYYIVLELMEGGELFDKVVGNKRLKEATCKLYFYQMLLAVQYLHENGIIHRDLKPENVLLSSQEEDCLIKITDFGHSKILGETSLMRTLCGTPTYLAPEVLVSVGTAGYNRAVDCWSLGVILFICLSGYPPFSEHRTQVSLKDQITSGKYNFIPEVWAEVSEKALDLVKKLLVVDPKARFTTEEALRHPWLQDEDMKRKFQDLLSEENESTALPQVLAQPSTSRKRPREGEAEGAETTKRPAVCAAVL
UniProt P07333, whole entry: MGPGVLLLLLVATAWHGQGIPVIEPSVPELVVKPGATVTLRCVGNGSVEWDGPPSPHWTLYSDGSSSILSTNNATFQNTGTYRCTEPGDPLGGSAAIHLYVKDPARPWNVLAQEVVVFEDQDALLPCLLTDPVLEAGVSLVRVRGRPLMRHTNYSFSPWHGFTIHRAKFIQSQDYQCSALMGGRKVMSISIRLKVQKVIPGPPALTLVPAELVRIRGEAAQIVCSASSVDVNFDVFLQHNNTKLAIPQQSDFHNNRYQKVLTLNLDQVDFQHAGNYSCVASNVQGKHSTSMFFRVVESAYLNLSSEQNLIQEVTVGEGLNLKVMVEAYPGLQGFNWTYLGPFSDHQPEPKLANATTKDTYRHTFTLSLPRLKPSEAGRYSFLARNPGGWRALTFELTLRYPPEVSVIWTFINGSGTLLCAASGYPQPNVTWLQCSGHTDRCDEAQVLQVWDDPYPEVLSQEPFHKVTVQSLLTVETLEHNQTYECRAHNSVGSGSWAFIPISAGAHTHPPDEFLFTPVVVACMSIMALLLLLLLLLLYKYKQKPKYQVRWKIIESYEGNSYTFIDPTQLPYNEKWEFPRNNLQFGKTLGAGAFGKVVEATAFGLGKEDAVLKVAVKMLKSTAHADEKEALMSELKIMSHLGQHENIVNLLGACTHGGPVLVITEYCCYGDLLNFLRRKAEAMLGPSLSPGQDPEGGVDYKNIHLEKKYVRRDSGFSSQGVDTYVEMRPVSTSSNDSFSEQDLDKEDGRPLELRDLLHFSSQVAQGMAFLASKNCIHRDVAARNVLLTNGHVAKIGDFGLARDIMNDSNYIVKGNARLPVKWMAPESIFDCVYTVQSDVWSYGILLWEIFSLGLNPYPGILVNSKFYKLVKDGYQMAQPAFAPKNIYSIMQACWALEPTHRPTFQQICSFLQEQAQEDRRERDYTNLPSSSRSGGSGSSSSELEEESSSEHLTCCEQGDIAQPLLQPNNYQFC
UniProt P41240: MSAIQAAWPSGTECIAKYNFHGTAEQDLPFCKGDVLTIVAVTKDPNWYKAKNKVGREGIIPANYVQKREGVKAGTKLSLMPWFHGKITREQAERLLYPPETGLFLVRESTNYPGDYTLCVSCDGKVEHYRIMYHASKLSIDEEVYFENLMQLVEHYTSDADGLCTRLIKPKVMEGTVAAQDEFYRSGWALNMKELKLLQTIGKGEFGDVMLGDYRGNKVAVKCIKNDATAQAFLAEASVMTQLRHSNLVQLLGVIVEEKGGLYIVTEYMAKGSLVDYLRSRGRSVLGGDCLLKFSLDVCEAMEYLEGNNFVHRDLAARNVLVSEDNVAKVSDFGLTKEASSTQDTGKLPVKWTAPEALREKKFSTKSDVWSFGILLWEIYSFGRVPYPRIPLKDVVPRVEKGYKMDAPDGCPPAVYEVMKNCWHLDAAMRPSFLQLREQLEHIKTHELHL

Structure (SMILES) | number of time points (CAMK2A) | number of time points (CAMK2G) | number of time points (CDK10) | number of time points (CDK2) | number of time points (CDK3) | number of time points (CDK5) | number of time points (CDK6) | number of time points (CHEK2) | number of time points (CSF1R) | number of time points (CSK)
COc1ccc(Cl)cc1N(CC(=O)Nc1ccc2c(c1)OCO2)S(=O)(=O)c1ccccc1 (2.5 µM) | 0 | 0 | 0 | 0 | 0 | 0 | 0 | 0 | 0 | 0
CC(C)n1c(CO)nc2c(F)cc(-c3nc(Nc4ccc(CN5CCNCC5)cn4)ncc3F)cc21 (10 µM) | 0 | 3 | 0 | 0 | 0 | 0 | 0 | 3 | 2 | 0
O=S(=O)(c1ccc(O)cc1O)N1Cc2cc(O)cc(O)c2C1 (10 µM) | 0 | 0 | 0 | 0 | 0 | 0 | 0 | 0 | 0 | 0
CC(C)(CCCCCC(O)CCCCCC(C)(C)C(=O)O)C(=O)O [Bempedoic acid] (10 µM) | 0 | 0 | 0 | 0 | 0 | 0 | 0 | 0 | 0 | 0
O=C(Nc1ccc(F)cc1F)C(NC(=S)Nc1cc(C(F)(F)F)cc(C(F)(F)F)c1)c1ccccc1 (racemic) (2.5 µM) | 0 | 0 | 0 | 0 | 0 | 0 | 0 | 0 | 0 | 0
Cn1cc(C2=C(c3ccc(Cl)cc3Cl)C(=O)NC2=O)c2ccccc21 (10 µM) | 0 | 0 | 0 | 0 | 0 | 0 | 0 | 0 | 0 | 0
Nc1ccc(O)c(C(=O)O)c1 [5-Aminosalicylic Acid] (10 µM) | 0 | 0 | 0 | 0 | 0 | 0 | 0 | 0 | 0 | 0
CN1CCC(Nc2ccc(C(=O)Nc3cc(-c4ccc5c(c4)OCO5)[nH]n3)cc2)CC1 (10 µM) | 0 | 0 | 0 | 0 | 0 | 0 | 0 | 0 | 0 | 0
Cc1ncc(-c2cc(F)c(O)c(F)c2)cc1-c1cc(F)c(O)c(F)c1 (10 µM) | 0 | 0 | 0 | 0 | 0 | 0 | 0 | 0 | 0 | 0
CNCc1ccccc1Sc1cccc2ccccc12 [IFN alpha-IFNAR-IN-1 (hydrochloride)] (10 µM) | 0 | 0 | 0 | 0 | 0 | 0 | 0 | 0 | 0 | 0
COc1cc2ncnc(Nc3cc(Br)c(O)c(Br)c3)c2cc1OC (2.5 µM) | 0 | 0 | 0 | 0 | 0 | 0 | 0 | 0 | 0 | 0
Nc1ccc(-c2cccc(C(=O)Nc3cnc4nc(N5CCOCC5)oc4c3)n2)cn1 (10 µM) | 0 | 0 | 0 | 0 | 0 | 0 | 0 | 0 | 0 | 0
Cc1nc(NC(=O)N2CCC[C@H]2C(N)=O)sc1-c1ccnc(C(C)(C)C(F)(F)F)c1 [Alpelisib] (2.5 µM) | 0 | 0 | 0 | 0 | 0 | 0 | 0 | 0 | 0 | 0
CCOC(=O)c1c(Nc2ccccc2Cl)oc(/C=C2\C=Nc3ncccc32)c1O (10 µM) | 0 | 0 | 0 | 0 | 0 | 0 | 0 | 0 | 0 | 0
CO[C@@H]1[C@H](N(C)C(=O)c2ccccc2)C[C@H]2O[C@]1(C)n1c3ccccc3c3c4c(c5c6ccccc6n2c5c31)C(=O)NC4 [Midostaurin] (2.5 µM) | 0 | 0 | 0 | 0 | 0 | 0 | 0 | 0 | 0 | 0
CN1C(=O)N[C@@H](Cc2c[nH]c3c(Cl)cccc23)C1=O [Necrostatin 2 (S enantiomer)] (10 µM) | 0 | 0 | 0 | 0 | 0 | 0 | 0 | 0 | 0 | 0
COc1ccc(CN2CCC(c3ccc4nc(C(=O)N5CCN(Cc6ccc(C(F)(F)F)cc6)CC5)[nH]c4c3)CC2)cn1 (2.5 µM) | 0 | 0 | 0 | 0 | 0 | 0 | 0 | 0 | 0 | 0
C[C@@H]1CN(Cc2ccc(F)cc2)[C@@H](C)CN1C(=O)c1cc2c(C(=O)C(=O)N(C)C)cn(C)c2cc1Cl [Talmapimod] (10 µM) | 0 | 0 | 0 | 0 | 0 | 0 | 0 | 0 | 0 | 0
Cc1cccc(CC(=O)N2CCc3c2ccc(-c2cn(C)c4ncnc(N)c24)c3F)n1 (10 µM) | 0 | 0 | 0 | 0 | 0 | 0 | 0 | 0 | 0 | 0

Single entries from the entries so far:
number of time points (CDK5), CO[C@@H]1[C@H](N(C)C(=O)c2ccccc2)C[C@H]2O[C@]1(C)n1c3ccccc3c3c4c(c5c6ccccc6n2c5c31)C(=O)NC4 [Midostaurin] (2.5 µM) is entered as 0
number of time points (CSF1R), Cn1cc(C2=C(c3ccc(Cl)cc3Cl)C(=O)NC2=O)c2ccccc21 (10 µM) is entered as 0
number of time points (CSK), Cc1ncc(-c2cc(F)c(O)c(F)c2)cc1-c1cc(F)c(O)c(F)c1 (10 µM) is entered as 0

Going on with the list:

Structure (SMILES) | number of time points (CAMK2A) | number of time points (CAMK2G) | number of time points (CDK10) | number of time points (CDK2) | number of time points (CDK3) | number of time points (CDK5) | number of time points (CDK6) | number of time points (CHEK2) | number of time points (CSF1R) | number of time points (CSK)
CO[C@]1(C(=O)N[C@@H](C)c2ccc(-n3cc(F)cn3)nc2)CC[C@H](c2nc(C)cc(Nc3cc(C)[nH]n3)n2)CC1 [Pralsetinib] (10 µM) | 0 | 0 | 0 | 0 | 0 | 0 | 0 | 0 | 0 | 0
CCOC(=O)c1c(N2CCc3ccc(OC)cc3C2)oc(C=C2C=Nc3ncccc32)c1O (10 µM) | 0 | 0 | 0 | 0 | 0 | 0 | 0 | 0 | 0 | 0
CS[C@@]1(C(=O)Nc2ccc3[nH]nc(-c4ccc(OC(C)C)nc4)c3c2)CCN(CC(=O)N2CC=C(c3ccc(-c4ncn(C)n4)cc3)CC2)C1 (2.5 µM) | 0 | 0 | 0 | 0 | 0 | 0 | 0 | 0 | 0 | 0
O=C(Nc1ccccc1C(=O)NC1CCCCNC1=O)c1cc2ccccc2s1 (stereo not given) (10 µM) | 0 | 0 | 0 | 0 | 0 | 0 | 0 | 0 | 0 | 0
COC(=O)N1CCN(C2CCC(Nc3nc(Nc4cnn(C)c4)nc4ccc(CC#N)nc34)CC2)CC1 (stereo not given) (10 µM) | 0 | 0 | 0 | 0 | 0 | 0 | 0 | 0 | 0 | 0
COc1cc(N2CCC(O)CC2)ccc1Nc1nc(Nc2ccccc2S(=O)(=O)C(C)C)c2[nH]cnc2n1 (10 µM) | 0 | 0 | 0 | 0 | 0 | 0 | 0 | 0 | 0 | 0
O=c1c(O)c(-c2ccc(O)c(O)c2)oc2cc(O)c(O)c(O)c12 [Quercetagetin] (10 µM) | 0 | 0 | 0 | 0 | 0 | 0 | 0 | 0 | 0 | 0
CN(C[C@@H]1COCCO1)S(=O)(=O)Nc1ccc2ccc3ncc(-c4cnn(C)c4)cc3c(=O)c2c1 (2.5 µM) | 0 | 0 | 0 | 0 | 0 | 0 | 0 | 0 | 0 | 0
CN(C)CCn1cc2cc(NC(=O)c3cccc(C(F)(F)F)n3)c(C(C)(C)O)cc2n1 (10 µM) | 0 | 0 | 0 | 0 | 0 | 0 | 0 | 0 | 0 | 0
CNC(=O)CN1CCC(Oc2cc3c(Nc4cccc(Cl)c4F)ncnc3cc2OC)CC1 [Sapitinib] (10 µM) | 0 | 0 | 0 | 0 | 0 | 0 | 0 | 0 | 0 | 0
CCOc1cc(N2CCC(O)CC2)ccc1Nc1ncc2c(n1)N(C1CCCC1)CCC(=O)N2C (2.5 µM) | 0 | 0 | 0 | 0 | 0 | 0 | 0 | 0 | 0 | 0
CN1CCC(Nc2nc(Nc3ccc(Oc4ccccc4)cc3)c3c(=O)[nH]cc(Br)c3n2)CC1 (2.5 µM) | 0 | 4 | 0 | 0 | 0 | 0 | 0 | 3 | 0 | 0
Nc1ccc(Sc2nc3ccccc3s2)c(Cl)c1 [KRAS inhibitor-9] (10 µM) | 0 | 0 | 0 | 0 | 0 | 0 | 0 | 0 | 0 | 0
O=C(O)/C=C(\CCc1ccc(Cl)cc1)c1ccccc1 (10 µM) | 0 | 0 | 0 | 0 | 0 | 0 | 0 | 0 | 0 | 0
COc1cc2c(cc1OC)[C@@H]1C(=O)c3ccc4c(c3O[C@@H]1CO2)C=CC(C)(C)O4 [Deguelin] (10 µM) | 0 | 0 | 0 | 0 | 0 | 0 | 0 | 0 | 0 | 0
COc1ccc2cc1Oc1ccc(cc1)C[C@H]1c3cc(c(OC)cc3CCN1C)Oc1c(O)c(OC)cc3c1[C@H](C2)N(C)CC3 [Fangchinoline] (2.5 µM) | 0 | 0 | 0 | 0 | 0 | 0 | 0 | 0 | 0 | 0
Cc1cc(N2CCOCC2)ccc1Nc1nc(NC2CCCCC2)c2[nH]cnc2n1 (10 µM) | 0 | 0 | 0 | 0 | 0 | 0 | 0 | 0 | 0 | 0
C=CC(=O)Nc1cc(Nc2nccc(-c3cn(C)c4ccccc34)n2)c(OCC(F)(F)F)nc1N(C)CCNC [AST5902  (trimesylate)] (2.5 µM) | 0 | 0 | 0 | 0 | 0 | 0 | 0 | 0 | 0 | 0

Source: the supplement of paper PMC12823440, “Inhibitors supercharge kinase turnover through native proteolytic circuits” (Nature, 2025)
